Experimental data from patent US8450054B2, “Modified Luciola cruciata luciferase gene and protein” (Marker Gene Technologies, Inc., priority 2008, dated 2013).
Numbering of substitutions follows the chain as printed.

B1: modified luciferase: Luciola cruciata luciferase with Ser to Tyr change at position 286, amino acid sequence SEQ ID NO:4, encoded by codon optimized gene SEQ ID NO:3 (protein, listed as Luciola cruciata)
chain: MENMENDENIVVGPKPFYPIEEGSAGTQLRKYMERYAKLGAIAFTNAVTGVDYSYAEYLEKSCCLGKALQNYGLVVDGRIALCSENCEEFFIPVIAGLFIGVGVAPTNEIYTLRELVHSLGISKPTIVFSSKKGLDKVITVQKTVTTIKTIVILDSKVDYRGYQCLDTFIKRNTPPGFQASSFKTVEVDRKEQVALIMNSSGSTGLPKGVQLTHENTVTRFSHARDPIYGNQVSPGTAVLTVVPFHHGFGMFTTLGYLICGFRVVMLTKFDEETFLKTLQDYKCTYVILVPTLFAILNKSELLNKYDLSNLVEIASGGAPLSKEVGEAVARRFNLPGVRQGYGLTETTSAIIITPEGDDKPGASGKVVPLFKAKVIDLDTKKSLGPNRRGEVCVKGPMLMKGYVNNPEATKELIDEEGWLHTGDIGYYDEEKHFFIVDRLKSLIKYKGYQVPPAELESVLLQHPSIFDAGVAGVPDPVAGELPGAVVVLESGKNMTEKEVMDYVASQVSNAKRLRGGVRFVDEVPKGLTGKIDGRAIREILKKPVAKM
B2: wild-type protein: Wild-type Japanese firefly Luciola cruciata luciferase protein, SEQ ID NO:2 (protein, listed as Luciola cruciata)
chain: B1 chain with Y286S

Assay: Wavelength of emitted light of the luciferase
Conditions: pH 6

Molecule | emitted light wavelength
B1 | 619 nm
B2 | 560 nm
